# Tests used:
# [1] = tested on: ovarian cancer samples; test: Relative LC-MS quantitation of HLA-presented peptides: presentation and over-presentation on ovarian cancer vs a panel of normal tissues (presentation score); parameters: species or system human; key: +++: very highly over-presented on tumors compared to a panel of normal tissues; ++: highly over-presented on tumors compared to a panel of normal tissues; +: over-presented on tumors compared to a panel of normal tissues; conditions: over-presentation on tumors compared to a panel of normal tissues
# [2] = tested on: additional tumor types; test: LC-MS detection and over-presentation of the peptides on additional tumor types, cell lines and primary cultures; parameters: species or system human; conditions: for Other relevant organs/ cancerous diseases: Table 4A: additional tumor types on which the peptide was found, over-presented on more than 5% of measured tumor samples, or presented on more than 5% with ratio of geometric means tumor vs normal tissues larger than 3; for peptide additionally detected on tumor samples (positive/measured): sample set of FIG. 1A-D
# [3] = cell lines and primary cultures
# [4] = additional tumor types with over-presentation on more than 5% of the measured tumor samples, or presentation on more than 5% with ratio of geometric means tumor vs normal tissues larger than 3
# [5] = leukocytic leukemia cancers (FIG. 1D: leukemias)
# [6] = amendment of Table 4: additional tumor types showing over-presentation (including specific presentation) on more than 5% of measured tumor samples, or presentation on more than 5% with ratio of geometric means tumor vs normal tissues larger than 3
substance,measurement,setting,value
156 (AISQGITLPSL; listed as Homo sapiens) [compound 156],Peptide Presentation (presentation score),[1],+++
221 (ALYEEGLLL; listed as Homo sapiens) [compound 221],Peptide Presentation (presentation score),[1],+++
168 (KILDADIQL; listed as Homo sapiens) [compound 168],Peptide Presentation (presentation score),[1],+++
516 (AVGPASILKEV; listed as Homo sapiens) [compound 516],Peptide Presentation (presentation score),[1],+++
471 (YLYNNMIAKI; listed as Homo sapiens) [compound 471],Peptide Presentation (presentation score),[1],+++
515 (LLQELVLFL; listed as Homo sapiens) [compound 515],Peptide Presentation (presentation score),[1],+++
460 (AMLEKNYKL; listed as Homo sapiens) [compound 460],Peptide Presentation (presentation score),[1],+++
ALLENPKMEL (listed as Homo sapiens) [SEQ ID NO.: 441],number of samples with detectable presentation of the peptide,[2]; breast cancers,1
same,number of samples with detectable presentation of the peptide,"[2]; cancer tissues, total",26
same,number of samples with detectable presentation of the peptide,[2]; [3],5
same,number of samples with detectable presentation of the peptide,[2]; colon cancers,1
same,number of samples with detectable presentation of the peptide,[2]; esophageal cancers,1
same,number of samples with detectable presentation of the peptide,[2]; head and neck cancers,1
same,number of samples with detectable presentation of the peptide,[2]; liver cancers,2
same,number of samples with detectable presentation of the peptide,[2]; lung cancers,10
same,number of samples with detectable presentation of the peptide,[2]; prostate cancers,1
same,number of samples with detectable presentation of the peptide,[2]; rectum cancers,1
same,number of samples with detectable presentation of the peptide,[2]; urinary bladder cancers,2
same,number of samples with detectable presentation of the peptide,[2]; uterus cancers,1
596 (ALLDQTKTLAESAL; listed as Homo sapiens) [compound 596],Other relevant organs/ cancerous diseases,[2],"Leukemia, Melanoma"
same,Additional organs/cancerous diseases,[2]; [4],"CLL, NHL"
409 (LLDAMNYHL; listed as Homo sapiens) [compound 409],Other relevant organs/ cancerous diseases,[2],"HCC, Leukemia"
same,Additional organs/cancerous diseases,[2]; [4],"CLL, NHL"
378 (ALGYFVPYV; listed as Homo sapiens) [compound 378],Other relevant organs/ cancerous diseases,[2],HCC
FLFPNQYVDV (listed as Homo sapiens) [SEQ ID NO.: 248],number of samples with detectable presentation of the peptide,[2]; bile duct cancers,1
same,number of samples with detectable presentation of the peptide,[2]; breast cancers,2
same,number of samples with detectable presentation of the peptide,"[2]; cancer tissues, total",24
same,number of samples with detectable presentation of the peptide,[2]; [3],3
same,number of samples with detectable presentation of the peptide,[2]; [5],2
same,number of samples with detectable presentation of the peptide,[2]; liver cancers,1
same,number of samples with detectable presentation of the peptide,[2]; lung cancers,9
same,number of samples with detectable presentation of the peptide,[2]; lymph node cancers,2
same,number of samples with detectable presentation of the peptide,[2]; prostate cancers,1
same,number of samples with detectable presentation of the peptide,[2]; skin cancers,2
same,number of samples with detectable presentation of the peptide,[2]; uterus cancers,1
612 (YLYNEGLSV; listed as Homo sapiens) [compound 612],Additional organs/cancerous diseases,[2]; [4],"BRCA, Urinary Bladder Cancer, AML, NHL, HNSCC"
306 (ALVNVQIPL; listed as Homo sapiens) [compound 306],Other relevant organs/ cancerous diseases,[2],"HCC, Esophageal Cancer"
same,Additional organs/cancerous diseases,[2]; [4],"Melanoma, Uterine Cancer"
YLMDINGKMWL (listed as Homo sapiens) [SEQ ID NO.: 184],number of samples with detectable presentation of the peptide,[2]; breast cancers,1
same,number of samples with detectable presentation of the peptide,"[2]; cancer tissues, total",19
same,number of samples with detectable presentation of the peptide,[2]; [3],1
same,number of samples with detectable presentation of the peptide,[2]; gallbladder cancer,1
same,number of samples with detectable presentation of the peptide,[2]; [5],1
same,number of samples with detectable presentation of the peptide,[2]; lung cancers,6
same,number of samples with detectable presentation of the peptide,[2]; lymph node cancers,2
same,number of samples with detectable presentation of the peptide,[2]; skin cancers,2
same,number of samples with detectable presentation of the peptide,[2]; uterus cancers,1
314 (ALIAEGIALV; listed as Homo sapiens) [compound 314],Other relevant organs/ cancerous diseases,[2],"SCLC, Melanoma"
same,Additional organs/cancerous diseases,[2]; [4],Uterine Cancer
VLVSDGVHSV (listed as Homo sapiens) [SEQ ID NO.: 6],peptide additionally detected on tumor samples (positive/measured),[2]; Merkel cell carcinomas,1/2
same,peptide additionally detected on tumor samples (positive/measured),[2]; breast cancers,1/6
154 (ALDDGTPAL; listed as Homo sapiens) [compound 154],Other relevant organs/ cancerous diseases,[2],HCC
same,Additional organs/cancerous diseases,[2]; [6],Uterine Cancer
VLIANLEKL (listed as Homo sapiens) [SEQ ID NO.: 466],number of samples with detectable presentation of the peptide,[2]; breast cancers,3
same,number of samples with detectable presentation of the peptide,"[2]; cancer tissues, total",17
same,number of samples with detectable presentation of the peptide,[2]; [3],5
same,number of samples with detectable presentation of the peptide,[2]; esophageal cancers,2
same,number of samples with detectable presentation of the peptide,[2]; liver cancers,1
same,number of samples with detectable presentation of the peptide,[2]; lung cancers,2
same,number of samples with detectable presentation of the peptide,[2]; lymph node cancers,5
same,number of samples with detectable presentation of the peptide,[2]; urinary bladder cancers,1
128 (YLFDDPLSAV; listed as Homo sapiens) [compound 128],Other relevant organs/ cancerous diseases,[2],"Leukemia, Esophageal Cancer"
same,Additional organs/cancerous diseases,[2]; [6],"CLL, BRCA, Uterine Cancer, Gallbladder Cancer and Bile Duct Cancer, AML, NHL, HNSCC"
264 (SLQEQLHSV; listed as Homo sapiens) [compound 264],Other relevant organs/ cancerous diseases,[2],"NSCLC, SCLC, PrC, BrCa, Melanoma, Esophageal Cancer"
same,Additional organs/cancerous diseases,[2]; [4],Uterine Cancer
276 (ALFTFSPLTV; listed as Homo sapiens) [compound 276],Other relevant organs/ cancerous diseases,[2],Leukemia
same,Additional organs/cancerous diseases,[2]; [4],Uterine Cancer
350 (ALLDVTHSELTV; listed as Homo sapiens) [compound 350],Additional organs/cancerous diseases,[2]; [4],"BRCA, HNSCC"
ILVEADGAWVV (listed as Homo sapiens) [SEQ ID NO.: 77],number of samples with detectable presentation of the peptide,[2]; brain cancers,1
same,number of samples with detectable presentation of the peptide,[2]; breast cancers,2
same,number of samples with detectable presentation of the peptide,"[2]; cancer tissues, total",19
same,number of samples with detectable presentation of the peptide,[2]; [3],4
same,number of samples with detectable presentation of the peptide,[2]; colon cancers,1
same,number of samples with detectable presentation of the peptide,[2]; [5],1
same,number of samples with detectable presentation of the peptide,[2]; lung cancers,4
same,number of samples with detectable presentation of the peptide,[2]; lymph node cancers,3
same,number of samples with detectable presentation of the peptide,[2]; prostate cancers,1
same,number of samples with detectable presentation of the peptide,[2]; skin cancers,1
same,number of samples with detectable presentation of the peptide,[2]; urinary bladder cancers,1
same,number of samples with detectable presentation of the peptide,[2]; uterus cancers,1
567 (SLLPLDDIVRV; listed as Homo sapiens) [compound 567],Other relevant organs/ cancerous diseases,[2],Leukemia
same,Additional organs/cancerous diseases,[2]; [4],"CLL, BRCA"
KLAEGLDIQL (listed as Homo sapiens) [SEQ ID NO.: 449],peptide additionally found on tumor samples (positive/measured),"[2]; lymph node cancers, sample set of FIG. 1E-K",1/20
250 (ALSEEGLLVYL; listed as Homo sapiens) [compound 250],Additional organs/cancerous diseases,[2]; [4],"BRCA, Melanoma"
SLMEPPAVLLL (listed as Homo sapiens) [SEQ ID NO.: 1],peptide additionally detected on tumor samples (positive/measured),[2]; AMLs,1/2
same,number of samples with detectable presentation of the peptide,[2]; bone marrow cancers,3
same,number of samples with detectable presentation of the peptide,[2]; brain cancers,1
same,number of samples with detectable presentation of the peptide,[2]; breast cancers,1
same,number of samples with detectable presentation of the peptide,"[2]; cancer tissues, total",45
same,number of samples with detectable presentation of the peptide,[2]; [3],1
same,number of samples with detectable presentation of the peptide,[2]; esophageal cancers,2
same,number of samples with detectable presentation of the peptide,[2]; head and neck cancers,1
same,number of samples with detectable presentation of the peptide,[2]; kidney cancer,1
same,number of samples with detectable presentation of the peptide,[2]; [5],3
same,number of samples with detectable presentation of the peptide,[2]; lung cancers,12
same,number of samples with detectable presentation of the peptide,[2]; myeloid cell cancer,1
same,number of samples with detectable presentation of the peptide,[2]; urinary bladder cancers,2
same,number of samples with detectable presentation of the peptide,[2]; uterus cancers,7
553 (SLLNQDLHWSL; listed as Homo sapiens) [compound 553],Additional organs/cancerous diseases,[2]; [4],CLL
381 (FIDEAYVEV; listed as Homo sapiens) [compound 381],Other relevant organs/ cancerous diseases,[2],Leukemia
same,Additional organs/cancerous diseases,[2]; [4],"GC, CLL, Melanoma, NHL"
49 (YLPAVFEEV; listed as Homo sapiens) [compound 49],Other relevant organs/ cancerous diseases,[2],Leukemia
same,Additional organs/cancerous diseases,[2]; [6],CLL
581 (RLWNETVEL; listed as Homo sapiens) [compound 581],Other relevant organs/ cancerous diseases,[2],"SCLC, Colon, Rectum"
same,Additional organs/cancerous diseases,[2]; [4],"AML, NHL"
340 (ALLSMTFPL; listed as Homo sapiens) [compound 340],Other relevant organs/ cancerous diseases,[2],"Brain Cancer, HCC, BrCa"
same,Additional organs/cancerous diseases,[2]; [4],"SCLC, AML"
286 (YLFPGIPEL; listed as Homo sapiens) [compound 286],Other relevant organs/ cancerous diseases,[2],"SCLC, HCC"
same,Additional organs/cancerous diseases,[2]; [4],"NSCLC, CLL, Melanoma, AML, NHL, HNSCC"
636 (LLTEIRAVV; listed as Homo sapiens) [compound 636],Additional organs/cancerous diseases,[2]; [4],"CLL, NHL"
140 (YMDAPKAAL; listed as Homo sapiens) [compound 140],Additional organs/cancerous diseases,[2]; [6],"Melanoma, AML"
380 (TLIEDEIATI; listed as Homo sapiens) [compound 380],Additional organs/cancerous diseases,[2]; [4],"SCLC, Melanoma, Uterine Cancer, Gallbladder Cancer and Bile Duct Cancer, AML, HNSCC"
467 (FLAKDFNFL; listed as Homo sapiens) [compound 467],Additional organs/cancerous diseases,[2]; [4],"NSCLC, Melanoma, Urinary Bladder Cancer, Gallbladder Cancer and Bile Duct Cancer, NHL, HNSCC"
374 (FLLQQHLISA; listed as Homo sapiens) [compound 374],Other relevant organs/ cancerous diseases,[2],Leukemia
same,Additional organs/cancerous diseases,[2]; [4],CLL
469 (YLASDEITTV; listed as Homo sapiens) [compound 469],Additional organs/cancerous diseases,[2]; [4],CLL
354 (LILEGVDTV; listed as Homo sapiens) [compound 354],Other relevant organs/ cancerous diseases,[2],Esophageal Cancer
same,Additional organs/cancerous diseases,[2]; [4],"BRCA, Urinary Bladder Cancer, Uterine Cancer, NHL"

# Source: patent US11230581B2, “Peptides and combination of peptides for use in immunotherapy against ovarian cancer and other cancers” (Immatics Biotechnologies GmbH, priority 2015, dated 2022)
